The campaign covered roughly 1,200 compounds. Fewer than 10 were called active. Calls come from the whole dose curve; as a rule, active = well fitted curve in the direction sought with a large enough effect; inconclusive = small, poorly fitted or top-dose-only effect, or another doubt; inactive = no such curve, though single readings can be large or run the other way. Some of the results follow.

The nature of the experiment: Confirmatory qHTS assay for inhibitors of Activation Induced Cytidine Deaminase (AID): UDG signals. Note: 0% is about no effect. The settings on record: UDG coupled enzyme activity counter-screen; at 115 µM (top of the series) unless noted. The procedure, abridged: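 UDG readout, a counterscreen: AID (1 uM, 4/3x) plus UDG (2 U/mL, 4/3x) preincubated 10 min with compound (7.32 nM - 114 uM final), then 4 h with DJC20/DJC23 substrates at room temperature; NaOH added, fluorescence read at 560/665 nm.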
(qHTS replaces the single test concentration by a dilution series.)
`CCc1ccc(OCC(=O)N(Cc2ccco2)Cc2ccccc2Cl)cc1`: the activity change, negative = inhibition is inactive: -3.43%. Regarding `CCn1cc2nc(SCc3cccc(C(F)(F)F)c3)n(Cc3ccc(C)cc3)c(=O)c2n1`, the activity change, negative = inhibition is inactive: -5.91%. For `CCOC(=O)c1cnc2c(Cl)cc(Cl)cc2c1Nc1cc(C(=O)O)ccc1C`, the activity change, negative = inhibition was inactive: 6.19%. Next, `CCCn1c(SCc2nc(-c3ccccc3OCC)no2)nnc1-c1ccc(Cl)cc1`: inactive: -14.3%. Next, `CN(c1ccc(F)cc1)S(=O)(=O)N1CCCC(C(=O)NCc2cccc(Br)c2)C1` (stereo unspecified): inactive: -8.48%; `Cc1ccccc1Cc1c(C)nc2nc(SCC(=O)N(C)c3ccccc3)nn2c1C`: inactive: -11.5%. Regarding `CCc1cnc2c(c1SCc1ccccc1C)c(=O)n(C)c(=O)n2C`, the activity change, negative = inhibition is inactive: -4.03%. Regarding `O=C(C1CCC(Cn2c(=O)c3sccc3n(Cc3ccccc3)c2=O)CC1)N1CCCCC1` (stereo unspecified), the activity change, negative = inhibition is inactive: -7.59%. In the case of `O=C1c2ccccc2C(=O)C1(c1ccccc1)N1CCN(c2cccc(C(F)(F)F)c2)CC1`, the activity change, negative = inhibition is inactive: 4.62%. Regarding `Cc1oc(-c2ccccc2Cl)nc1CS(=O)(=O)CC(=O)NC(C)CCc1ccccc1` (stereo unspecified), the activity change, negative = inhibition was inactive: -16.7%. As to `Cc1ccc(S(=O)(=O)c2nnn3c2nc(N2CCCCC2)c2sccc23)cc1`, the activity change, negative = inhibition was inactive: -1.37%.

Regarding `Cc1ccc(C(=O)/C=C/c2cn(CC(O)CN3CCCCCC3)c3ccccc23)cc1` (stereo unspecified), the activity change, negative = inhibition was inactive: -5.21%.

For `CC(=O)Nc1ccc(S(=O)(=O)Nc2nc3n(n2)C(c2ccccc2)C=C(c2ccc(Cl)cc2)N3)cc1` (stereo unspecified), the activity change, negative = inhibition is inactive: 6.59%. Next, `COc1ccccc1CN(Cc1ccco1)c1cnc(S(C)(=O)=O)nc1C(=O)Nc1ccccc1Cl`: inactive: -5.35%; `COc1ccc(C(=O)c2cn(Cc3cccc(C)c3)c3cc4c(cc3c2=O)OCCO4)cc1OC`: inactive: 3.22%. As to `Cc1nnc2c3ccccc3nc(N3CCN(c4cccc(Cl)c4)CC3)n12`, the activity change, negative = inhibition was inactive: -13.2%. With `CCN(C(=O)CSc1nc(-c2ccccc2)no1)c1cccc(C)c1`, the activity change, negative = inhibition is inactive: 7.11%. Next, `Cc1cccc(Cn2cc(C(=O)c3ccccc3)c(=O)c3cc4c(cc32)OCO4)c1`: inactive: -2.38%. The figure for `O=C(NCC(c1ccccc1)c1ccccc1)c1nn(-c2ccccc2Cl)nc1CO` is inactive: -13.5%. The figure for `COc1cc(OC)c(N(C)C(=O)c2nn(C)c3c2CSc2ccccc2-3)cc1Cl` is inactive: -8.43%. As to `Cn1c(SCc2ccc(F)cc2)nc2ccc(C(=O)NCc3ccc(F)cc3)cc21`, the activity change, negative = inhibition was inactive: -0.557%. Next, `CCOc1ccccc1NC(=O)CSc1nccn1-c1ccc(Cl)cc1`: inactive: -6.79%; `CCOc1ccc(CNC(=O)c2c(C)nn(-c3ccc(F)cc3)c2-n2cccc2)cc1`: inactive: 6.32%; `Cc1nc2nc(NC(=O)c3ccc(Cl)cc3)[nH]n2c(=O)c1Cc1ccccc1`: inactive: -3.47%. With `CCc1ccc(NC(=O)CSc2nc(=O)n(Cc3ccco3)c3c2CCC3)cc1`, the activity change, negative = inhibition was inactive: 2.29%.

As to `Cc1nc2ccccc2n1CCc1nc2c3ccccc3nc(SCC(=O)Nc3ccc(C(C)C)cc3)n2n1`, the activity change, negative = inhibition is inactive: -1.98%. The figure for `CCCCn1c(-c2ccc(C)cc2)c(C)n2c3c(=O)n(C)c(=O)n(C)c3nc12` is inactive: -8.55%. Regarding `CCOC(=O)c1c(C)oc2nc(C)nc(NC(C)c3ccccc3)c12` (stereo unspecified), the activity change, negative = inhibition was inactive: 2.44%.

As for `Cc1ccc2c(C)c(C(=O)N(Cc3ccc(Cl)cc3)C3CCS(=O)(=O)C3)oc2c1` (stereo unspecified), the activity change, negative = inhibition was inactive: -12.5%. For `N#C/C(=C\c1ccc(-c2cc(Cl)ccc2Cl)o1)C(=O)Nc1cccc2ncccc12`, the activity change, negative = inhibition was inactive: -8%. The figure for `Cc1cccc(CN2C(=O)c3ccccc3S(=O)(=O)c3ccc(C(=O)NCCC4=CCCCC4)cc32)c1` is inactive: -4.44%.

As to `COc1ccc(Cl)cc1NC(=O)c1c(NCc2ccc(C)o2)sc2c1CCCCC2`, the activity change, negative = inhibition is inactive: 5.87%. Consider `CC1CCN(S(=O)(=O)c2cn(CC(=O)Nc3cccc(C(F)(F)F)c3)c(=O)c3ccccc23)CC1`, for which the activity change, negative = inhibition was inactive: -11.9%.

With `Cc1ccc(Nc2c(-c3cccs3)nc3nc(C)cc(C)n23)cc1`, the activity change, negative = inhibition is inactive: 6.16%. The figure for `CCC(C(=O)Nc1cc(Cl)ccc1OC)n1nc(-c2ccccc2)ccc1=O` (stereo unspecified) is inactive: 0.722%; for `COc1ccc(C(=O)NCC(c2cccnc2)N2CCc3ccccc32)cc1` (stereo unspecified) it is inactive: 13.2%; for `CCOc1ccccc1CNC(=O)c1cnc2sc(N3CCCCCC3)nn2c1=O` it is inactive: 1.93%. Next, `CCOc1ccc(C(=O)c2cn(Cc3ccccc3OC)c3ccc(F)cc3c2=O)cc1`: inactive: -3.56%; `COc1ccc(C(=O)c2cn(Cc3ccc(F)cc3)c3ccc(C)cc3c2=O)cc1`: inactive: -1.36%. The figure for `Cc1ccc(-c2nc3ccccn3c2Nc2ccc3c(c2)OCO3)cc1` is inactive: -8.74%; for `Cc1ccc2c(c1)-c1c(cnn1CC(=O)N1CCN(c3cccc(C(F)(F)F)c3)CC1)CO2` it is inactive: -13.8%; for `CCCCNC(=O)c1cnn2c(C)c(Cc3c(C)cc(C)cc3C)c(C)nc12` it is inactive: -15.9%.

`COC(=O)c1ccc(OCC2c3cc(OC)c(OC)cc3CCN2C(=O)c2cccc(C)c2)cc1` (stereo unspecified): the activity change, negative = inhibition is inactive: -1.29%. Next, `Cc1ccc(C)c(N2CCN(CCCNc3ncnc4onc(-c5ccc(Cl)cc5)c34)CC2)c1`: inactive: -3.48%.

Regarding `Cc1cccc(-n2ncc(C(=O)NCc3ccc4c(c3)OCO4)c2C2CCN(C(=O)OC(C)(C)C)CC2)c1`, the activity change, negative = inhibition is inactive: -8%. As to `Cc1oc(-c2cccc(Br)c2)nc1Cn1c(SCc2cccc(F)c2)nc2cccnc21`, the activity change, negative = inhibition is inactive: -4.03%. The figure for `COc1ccccc1NC(=O)c1cc2cc3ccc(OC)c(Cl)c3nc2s1` is inactive: 8.79%.

`CCC1CCCCN1CCCNC(=O)c1ccc2c(c1)N(Cc1cccc(Cl)c1)C(=O)c1ccccc1S2(=O)=O` (stereo unspecified): the activity change, negative = inhibition was inactive: -18.1%. With `CN(Cc1ccccc1)C(=O)c1ccc(CSc2nc3cccnc3n2Cc2ccccc2)cc1`, the activity change, negative = inhibition is inactive: -1.08%. Next, `COc1ccc(NC(=O)c2c(NC(=O)c3ccc(Br)cc3)sc3c2CCCC3)cc1`: inactive: -4.81%; `COc1ccc(C)cc1N(C)C(=O)c1c2c(nc3ccccc13)C(=O)N(C1CCCCC1)C2`: inactive: -0.876%. With `CCCCN1C(C(=O)c2ccccc2)=C(OC(C)=O)c2ccccc2S1(=O)=O`, the activity change, negative = inhibition was inactive: 2.56%.

Turning to `Cc1c(NC(=O)C(C)(C)Oc2ccc(Cl)cc2)cccc1-c1nc2ncccc2o1`, the activity change, negative = inhibition was inactive: -2.3%. Turning to `Cc1ccccc1Cc1c(C)nc2nc(SCC(=O)NCCc3ccc(Cl)cc3)nn2c1C`, the activity change, negative = inhibition is inactive: -12.4%. Turning to `COc1cc(NC(=O)CSc2nc3nc(C)c(Cc4ccc(C)cc4)c(C)n3n2)cc(OC)c1OC`, the activity change, negative = inhibition is inactive: -0.132%. Turning to `O=C(Nc1ccc(F)cc1F)c1ccc2c(O)c(S(=O)(=O)c3ccc(Cl)cc3)c(=O)[nH]c2c1`, the activity change, negative = inhibition is inactive: 6.68%. The figure for `COc1ccc(CNCCC(c2ccccc2)c2ccc3c(c2)OCO3)cc1` (stereo unspecified) is inactive: -6.7%; for `Cc1ccc(N2C(=O)CSC23C(=O)N(CC(=O)Nc2ccc(C(C)C)cc2)c2ccccc23)cc1C` (stereo unspecified) it is inactive: -14.1%; for `CCOc1ccccc1C(=O)Oc1c(S(=O)(=O)c2ccc(C)cc2)c(C)nn1-c1ccccc1` it is inactive: -1.9%.

`CCCCn1cc(S(=O)(=O)c2ccccc2)c(=O)c2cc(F)c(N3CCN(CCC)CC3)cc21`: the activity change, negative = inhibition is inactive: 1.25%. Next, `COc1ccc(CCN2CCC(CNC(=O)c3cnn(-c4ccc(C)cc4)c3C3CCN(C(=O)OC(C)(C)C)CC3)CC2)cc1`: inactive: -7.6%. For the compound `COc1ccc(C(CNC(=O)COc2cc(C)cc(C)c2)N2CCCCC2)cc1` (stereo unspecified), the activity change, negative = inhibition is inactive: 7.37%. In the case of `CC(C)(C)c1ccc(-c2nc(SCCOc3ccc(Cl)cc3)n3[nH]c(=O)cc3n2)cc1`, the activity change, negative = inhibition was inactive: -3.11%.

`CCOc1ccccc1NC(=O)CSc1ncc(S(=O)(=O)c2ccc(C(C)(C)C)cc2)c(=O)[nH]1`: the activity change, negative = inhibition is inactive: -2.41%. Next, `Cc1ccc(C)c(CSc2cn(CCNC(=O)c3cccs3)c3ccccc23)c1`: inactive: -2.36%; `CCCn1cc(S(=O)(=O)c2ccccc2)c(=O)c2cc(F)c(N3CCCCCC3)cc21`: inactive: -6.33%. `CCOc1ccc(-n2c(C)nc3cc(C(=O)NCc4ccc(C)cc4)ccc32)cc1`: the activity change, negative = inhibition is inactive: -6.68%. For `COc1ccccc1Nc1c2c(nc3ccc(NC(=O)c4ccc(OC)c(OC)c4)cc13)CCCC2`, the activity change, negative = inhibition is inactive: -6.52%. Next, `Cc1ccc(C)c(-n2c(CCC(=O)O)ccc2-c2ccc(Cl)cc2)c1`: inactive: 2.67%. Next, `Cc1cc2oc(=O)c(CC(=O)O)c(C)c2c2occ(-c3ccc(F)cc3)c12`: inactive: -1.09%. As to `CCCn1c(SCc2nc(-c3cc(OC)ccc3OC)no2)nnc1-c1ccc(Cl)cc1`, the activity change, negative = inhibition was inactive: -18.2%.

Turning to `CCN(CC)CCOC(=O)c1ccc(NC(=O)Cn2ncc3c([nH]c4ccc(C)cc43)c2=O)cc1`, the activity change, negative = inhibition is inactive: 2.86%. The figure for `CCc1ccc(CN(Cc2ccco2)C(=O)c2ccc(OC)cc2)cc1` is inactive: -8.82%; for `O=S(=O)(NCCc1nnc2ccc(SCc3ccc(Cl)cc3Cl)nn12)c1ccccc1` it is inactive: -1.19%; for `CCCn1c(SCc2nc(-c3ccc(OC)cc3OC)no2)nnc1-c1ccc(Cl)cc1` it is inactive: -28.3%. For `CCc1ccc(Nc2nc(N)nc(CSc3nc4ccccc4s3)n2)cc1`, the activity change, negative = inhibition was inactive: 2.53%. Next, `O=C(NCCC1=CCCCC1)c1ccc2c(c1)ncn2-c1ccc(F)c(F)c1`: inactive: -6.55%; `Cc1ccc(N(Cc2cccs2)C(=O)c2ccc(Br)o2)cc1`: inactive: -6.43%.

Consider `CSc1ccc2c(c1)C(N1CCN(C)CC1)Cc1ccccc1S2` (stereo unspecified), for which the activity change, negative = inhibition is inactive: 6.02%.

As for `Cc1ccc(C)c(Nc2nn3c(=O)c4ccc(C(=O)NCc5cccs5)cc4nc3s2)c1`, the activity change, negative = inhibition is inactive: -7.32%. Turning to `CCCN(CCC)CCCNC(=O)c1cn(CC)c2ccc(S(=O)(=O)N3CCc4ccccc4C3)cc2c1=O`, the activity change, negative = inhibition was inactive: -12.6%.

The record behind these values is PubChem BioAssay AID1347431 (National Center for Advancing Translational Sciences (NCATS), 2020).
